In publication PMC8263009:
Results are given in words; binding and its absence hold for the method and conditions named. In cells and extracts the contact can be indirect. Some entries that bind do so weakly or less than the wild type.

Molecular target: T1, WHITE COLLAR protein WC-2 (Neurospora (endogenous in Neurospora extracts)) (UniProt P78714)
T1 sequence: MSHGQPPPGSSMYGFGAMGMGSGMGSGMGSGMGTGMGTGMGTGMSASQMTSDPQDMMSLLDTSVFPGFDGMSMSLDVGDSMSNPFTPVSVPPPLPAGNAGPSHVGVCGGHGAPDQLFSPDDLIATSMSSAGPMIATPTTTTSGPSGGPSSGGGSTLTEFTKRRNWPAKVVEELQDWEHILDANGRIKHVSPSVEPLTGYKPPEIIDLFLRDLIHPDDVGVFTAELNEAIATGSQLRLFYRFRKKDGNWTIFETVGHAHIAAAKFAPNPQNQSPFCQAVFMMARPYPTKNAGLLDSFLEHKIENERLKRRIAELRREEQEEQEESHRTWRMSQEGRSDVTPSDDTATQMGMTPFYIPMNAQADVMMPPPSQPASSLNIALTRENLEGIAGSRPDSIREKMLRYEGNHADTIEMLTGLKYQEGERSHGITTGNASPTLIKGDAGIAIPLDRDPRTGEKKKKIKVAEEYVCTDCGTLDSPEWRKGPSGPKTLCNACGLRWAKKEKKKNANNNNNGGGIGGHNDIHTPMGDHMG
Test: co-IP; WC-2 antibody and GammaBind G Sepharose on 2 mg extract of the wild-type strain grown at different temperatures in constant light; blot for FRQ and WC-2

B1: FREQUENCY (FRQ), wild type (protein, UniProt P19970 1-989)
chain: MADSGDKSQGMRPPPFDSRGHPLPRRASPDKSITLENHRLARDTSSRVTSSSALGVTESQPQLKSSPTRRNSSGESEPTNWFNQSNRNPAAAFHDESHIMEVDPPFYQKETDSSNEESRYPPGRNPVHPPGGVQLPGFRPVAAHSSAADDYRSVIDDLTVENKRLKEELKRYKQFGSDVMRKEKLFEIKVHGLPRRKKRELEATLRDFAASLGDSSESTSQRRKTGRHGTAVHSSGVSLSKHDSSSSSRSRPVDSAYNSMSTGRSSHAPHSSGPSLGRPSLTRAKSVGTQKVENYLRDTPDGLLPHHIVMTDKEKKKLVVRRLEQLFTGKISGRNMQRNQSMPSMDAPLAPEGTNMAPPRPPPEGLREACIQLQDGDNPRKNRSSKDNGSASNSGGDQTELGGTGTGSGDGSGSGGRTGNNTSPPGAIAPDQRPTRPRDLDPDRVQIPSENMDYIRHLGLVSPEFLQGSRTSYQDVAPDAEGWVYLNLLCNLAQLHMVNVTPSFIRQAVSEKSTKFQLSADGRKIRWRGGTDGTKFSSDSSEDKSQQSPMTEDTEDGSDKNGRRKKRKTQQASSEIGRFGPSRSPSDTFHYKPMFVHRNSSSIETSLEESMSQGSEDAVDESNMGNSKWDFSGSGTTQQRRKRRYDGAIVYYTGAPFCTDLSGDPGDMSPTAQMTAGREVEGSGSGDEVEHVLQRTLSGSSLPIRPLSDDRARVAEVLDFDPGNPPELVADDGSSPNDEDFVFPWCEDPAKVRIQPIAKEVMEPSGLGGVLPDDHFVMLVTTRRVVRPILQRQLSRSTTSEDTAEFIAERLAAIRTSSPLPPRSHRLTVAPLQVEYVSGQFRRLNPAPLPPPAIFYPPFSTDSSWDDGDDLASDDEEVEEVEEDSYSEGQISRRANPHFSDNNTYMRKDDLAFDTETDVRMDSDDNRLSDSGHNMRAMMPRAEAVDGDDSPLAAVTGKEVDMLHTGSSVATAGGAESGYSSSMEDVSSS
How did the binding turn out when B1 was run?
Its binding is “binds”.
